According to publication PMC7210307:
No constants are given. Whether binding was seen depends on the method and setting. Binding seen in cells or lysates may run through a third protein. Some results given as binding are weak or reduced against the parent protein; the word gives no strength.

Sequences of proteins named here, by UniProt entry; tags and fusion partners are left off.
UniProt P61586: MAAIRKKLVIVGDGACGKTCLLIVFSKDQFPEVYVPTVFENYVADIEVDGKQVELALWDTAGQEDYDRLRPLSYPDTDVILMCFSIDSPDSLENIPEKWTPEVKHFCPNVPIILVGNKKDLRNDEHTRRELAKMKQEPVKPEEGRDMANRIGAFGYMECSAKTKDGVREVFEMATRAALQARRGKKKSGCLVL
UniProt P60953: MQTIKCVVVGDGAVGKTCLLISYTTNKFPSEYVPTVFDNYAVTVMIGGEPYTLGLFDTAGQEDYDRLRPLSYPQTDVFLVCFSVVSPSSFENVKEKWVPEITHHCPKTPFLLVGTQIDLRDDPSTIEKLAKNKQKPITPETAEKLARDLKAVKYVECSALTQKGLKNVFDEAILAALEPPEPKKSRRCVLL
UniProt Q9P212: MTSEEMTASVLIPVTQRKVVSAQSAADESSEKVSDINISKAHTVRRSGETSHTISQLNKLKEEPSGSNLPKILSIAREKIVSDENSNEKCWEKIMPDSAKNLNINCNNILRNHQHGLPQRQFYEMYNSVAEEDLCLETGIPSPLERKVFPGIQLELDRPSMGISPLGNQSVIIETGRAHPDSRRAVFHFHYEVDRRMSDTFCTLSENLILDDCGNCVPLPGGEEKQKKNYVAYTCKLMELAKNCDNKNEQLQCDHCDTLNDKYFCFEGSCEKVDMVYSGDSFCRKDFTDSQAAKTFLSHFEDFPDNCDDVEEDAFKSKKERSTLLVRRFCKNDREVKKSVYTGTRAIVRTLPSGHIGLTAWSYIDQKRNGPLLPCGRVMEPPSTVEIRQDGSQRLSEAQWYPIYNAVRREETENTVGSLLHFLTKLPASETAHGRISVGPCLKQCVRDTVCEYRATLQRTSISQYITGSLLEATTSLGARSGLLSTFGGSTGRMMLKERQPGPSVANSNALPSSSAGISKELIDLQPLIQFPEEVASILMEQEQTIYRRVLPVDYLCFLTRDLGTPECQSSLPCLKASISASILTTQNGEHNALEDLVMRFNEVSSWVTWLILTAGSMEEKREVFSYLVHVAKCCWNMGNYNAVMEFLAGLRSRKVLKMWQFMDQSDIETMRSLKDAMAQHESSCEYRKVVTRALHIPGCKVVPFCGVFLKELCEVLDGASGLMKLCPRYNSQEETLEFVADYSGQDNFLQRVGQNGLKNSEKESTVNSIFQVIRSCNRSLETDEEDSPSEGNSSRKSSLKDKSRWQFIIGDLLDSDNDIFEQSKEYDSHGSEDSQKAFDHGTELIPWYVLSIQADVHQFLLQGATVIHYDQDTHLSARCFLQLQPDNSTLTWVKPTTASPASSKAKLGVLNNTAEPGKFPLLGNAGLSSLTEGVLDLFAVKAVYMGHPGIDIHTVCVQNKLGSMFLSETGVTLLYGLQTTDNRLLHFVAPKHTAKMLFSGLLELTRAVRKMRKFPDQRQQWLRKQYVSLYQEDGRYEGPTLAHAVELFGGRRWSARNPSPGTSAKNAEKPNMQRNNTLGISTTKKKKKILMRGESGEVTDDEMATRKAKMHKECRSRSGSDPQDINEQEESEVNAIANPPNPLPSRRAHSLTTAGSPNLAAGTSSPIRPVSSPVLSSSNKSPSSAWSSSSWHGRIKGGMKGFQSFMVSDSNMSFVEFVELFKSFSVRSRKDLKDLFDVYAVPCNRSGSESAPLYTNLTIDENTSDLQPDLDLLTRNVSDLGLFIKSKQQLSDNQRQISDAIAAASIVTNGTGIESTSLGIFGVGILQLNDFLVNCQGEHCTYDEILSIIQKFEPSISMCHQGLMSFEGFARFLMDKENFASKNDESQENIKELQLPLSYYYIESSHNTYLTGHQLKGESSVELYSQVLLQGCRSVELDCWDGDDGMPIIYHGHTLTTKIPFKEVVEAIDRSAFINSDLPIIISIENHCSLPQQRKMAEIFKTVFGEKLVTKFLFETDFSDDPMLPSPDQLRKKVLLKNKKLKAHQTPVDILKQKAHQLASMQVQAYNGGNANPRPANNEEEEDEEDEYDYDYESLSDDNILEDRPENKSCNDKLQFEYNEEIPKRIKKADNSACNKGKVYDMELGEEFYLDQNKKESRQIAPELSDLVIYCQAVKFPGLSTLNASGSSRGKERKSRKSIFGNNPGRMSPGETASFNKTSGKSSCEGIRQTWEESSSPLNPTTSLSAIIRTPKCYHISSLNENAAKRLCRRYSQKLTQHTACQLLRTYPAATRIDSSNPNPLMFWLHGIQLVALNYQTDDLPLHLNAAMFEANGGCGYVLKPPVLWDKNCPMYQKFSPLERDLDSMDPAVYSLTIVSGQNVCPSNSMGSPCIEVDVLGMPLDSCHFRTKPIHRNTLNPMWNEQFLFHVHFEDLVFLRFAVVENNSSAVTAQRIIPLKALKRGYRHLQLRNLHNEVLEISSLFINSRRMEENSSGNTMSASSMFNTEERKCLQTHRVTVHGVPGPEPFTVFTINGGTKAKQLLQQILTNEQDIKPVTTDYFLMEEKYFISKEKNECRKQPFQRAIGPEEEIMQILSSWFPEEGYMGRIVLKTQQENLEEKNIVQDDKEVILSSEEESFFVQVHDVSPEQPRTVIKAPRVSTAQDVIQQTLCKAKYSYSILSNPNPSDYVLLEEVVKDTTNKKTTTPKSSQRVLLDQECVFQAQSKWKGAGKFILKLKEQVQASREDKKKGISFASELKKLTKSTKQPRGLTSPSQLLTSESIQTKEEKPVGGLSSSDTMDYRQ
UniProt O43639: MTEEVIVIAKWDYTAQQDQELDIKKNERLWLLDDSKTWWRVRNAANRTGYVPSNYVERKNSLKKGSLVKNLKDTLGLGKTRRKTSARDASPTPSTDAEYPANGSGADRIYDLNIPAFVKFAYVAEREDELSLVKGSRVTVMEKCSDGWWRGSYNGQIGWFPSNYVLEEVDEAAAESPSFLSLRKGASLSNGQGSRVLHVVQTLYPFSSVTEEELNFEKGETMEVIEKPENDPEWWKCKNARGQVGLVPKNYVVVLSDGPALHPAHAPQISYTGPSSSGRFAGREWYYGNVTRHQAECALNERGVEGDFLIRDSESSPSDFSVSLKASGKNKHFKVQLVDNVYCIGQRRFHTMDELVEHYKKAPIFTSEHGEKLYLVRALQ

How the values were obtained:
[1] = biological target: RhoA in cultured podocytes (UniProt P61586); assay: co-IP; coimmunoprecipitation in cultured podocytes in the background of PLCE1 overexpression; which partner was precipitated is not stated
[2] = biological target: Cdc42 in cultured podocytes (UniProt P60953); assay: as above
[3] = biological target: FLAG-tagged PLCE1 transfected into podocytes (human) (UniProt Q9P212); assay: co-IP; FLAG-tagged PLCE1 and Myc-tagged NCKs transfected into podocytes; lysates immunoprecipitated with anti-FLAG agarose beads
[4] = biological target: GST-RhoA (UniProt P61586); assay: pull-down; GST-Rac1 or GST-RhoA purified from E. coli as bait; FLAG-PLCE1 expressed in HEK293 cells; only the target purified

“PLCE1 (phospholipase C epsilon 1), overexpressed in cultured podocytes (from UniProt Q9P212 1-2302) (enzyme)” was tested, and the binding [1] was “binds” and the binding [2] was “no binding”.

In the case of “Myc-tagged NCK2 (from UniProt O43639 1-380)”, the binding [3] is reported as “binds”.

“FLAG-PLCE1 expressed in HEK293 cells (from UniProt Q9P212 1-2302) (enzyme)” was tested, and the binding [4] was “binds”.
